Measurements: the supplement of paper PMC10849652
Some of the results follow.

By UniProt entry, the sequences of proteins in these tests, tags left out. Where a name states a change or a piece, a line headed by the entry shows the natural chain unless it says otherwise.
UniProt Q96I99: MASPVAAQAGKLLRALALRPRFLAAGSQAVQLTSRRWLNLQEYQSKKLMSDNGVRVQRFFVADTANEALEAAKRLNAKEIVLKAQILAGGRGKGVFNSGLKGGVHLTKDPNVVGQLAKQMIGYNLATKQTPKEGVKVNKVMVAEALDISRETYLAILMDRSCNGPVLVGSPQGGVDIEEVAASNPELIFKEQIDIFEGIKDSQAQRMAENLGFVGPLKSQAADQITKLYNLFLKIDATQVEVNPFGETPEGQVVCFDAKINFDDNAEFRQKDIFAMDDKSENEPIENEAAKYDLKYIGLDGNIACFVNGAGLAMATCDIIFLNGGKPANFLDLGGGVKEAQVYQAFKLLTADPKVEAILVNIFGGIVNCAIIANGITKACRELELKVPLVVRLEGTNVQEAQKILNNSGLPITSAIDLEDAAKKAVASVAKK
UniProt Q7Z422: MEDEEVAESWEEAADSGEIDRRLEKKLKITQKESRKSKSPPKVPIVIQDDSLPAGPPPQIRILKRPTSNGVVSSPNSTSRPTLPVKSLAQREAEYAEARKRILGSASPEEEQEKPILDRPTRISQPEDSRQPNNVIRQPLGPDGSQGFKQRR
UniProt Q13277: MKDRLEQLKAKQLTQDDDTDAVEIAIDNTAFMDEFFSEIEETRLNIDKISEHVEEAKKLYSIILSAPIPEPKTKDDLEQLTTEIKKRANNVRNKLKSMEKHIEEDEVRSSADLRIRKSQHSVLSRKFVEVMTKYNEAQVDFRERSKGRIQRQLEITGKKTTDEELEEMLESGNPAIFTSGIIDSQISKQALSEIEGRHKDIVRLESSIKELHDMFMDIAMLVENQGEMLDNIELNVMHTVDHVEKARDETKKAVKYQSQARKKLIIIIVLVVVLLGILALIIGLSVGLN
UniProt P61764, whole entry, looked up: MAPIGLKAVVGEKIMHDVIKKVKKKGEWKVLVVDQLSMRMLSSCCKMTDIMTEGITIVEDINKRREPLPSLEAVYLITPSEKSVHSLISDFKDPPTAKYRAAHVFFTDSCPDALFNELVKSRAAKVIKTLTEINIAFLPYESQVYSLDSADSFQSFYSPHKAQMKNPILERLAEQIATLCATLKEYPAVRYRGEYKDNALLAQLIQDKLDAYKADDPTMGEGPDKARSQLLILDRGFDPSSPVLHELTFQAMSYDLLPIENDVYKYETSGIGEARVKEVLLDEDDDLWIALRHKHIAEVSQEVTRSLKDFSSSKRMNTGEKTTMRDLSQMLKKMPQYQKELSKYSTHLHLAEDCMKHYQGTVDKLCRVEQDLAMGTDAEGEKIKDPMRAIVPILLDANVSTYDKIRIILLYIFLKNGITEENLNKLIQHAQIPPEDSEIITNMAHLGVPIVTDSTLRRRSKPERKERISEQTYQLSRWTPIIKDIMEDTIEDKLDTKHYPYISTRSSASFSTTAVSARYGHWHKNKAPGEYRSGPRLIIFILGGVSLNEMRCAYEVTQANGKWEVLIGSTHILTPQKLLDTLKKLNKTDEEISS
UniProt O15400: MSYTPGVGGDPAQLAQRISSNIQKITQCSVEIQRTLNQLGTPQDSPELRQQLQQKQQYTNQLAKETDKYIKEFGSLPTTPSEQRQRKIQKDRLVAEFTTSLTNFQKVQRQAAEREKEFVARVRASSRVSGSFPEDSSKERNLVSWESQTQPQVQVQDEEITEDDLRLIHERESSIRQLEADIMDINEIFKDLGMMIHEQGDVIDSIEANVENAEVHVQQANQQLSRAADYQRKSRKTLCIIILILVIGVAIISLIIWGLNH
UniProt Q12962, whole entry, looked up: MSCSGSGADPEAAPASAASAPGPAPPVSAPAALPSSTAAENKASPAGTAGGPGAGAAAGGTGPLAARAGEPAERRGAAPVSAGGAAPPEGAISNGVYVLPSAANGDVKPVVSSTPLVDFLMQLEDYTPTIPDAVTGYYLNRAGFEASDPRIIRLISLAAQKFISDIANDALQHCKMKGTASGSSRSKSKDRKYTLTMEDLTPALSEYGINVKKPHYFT
UniProt Q15750: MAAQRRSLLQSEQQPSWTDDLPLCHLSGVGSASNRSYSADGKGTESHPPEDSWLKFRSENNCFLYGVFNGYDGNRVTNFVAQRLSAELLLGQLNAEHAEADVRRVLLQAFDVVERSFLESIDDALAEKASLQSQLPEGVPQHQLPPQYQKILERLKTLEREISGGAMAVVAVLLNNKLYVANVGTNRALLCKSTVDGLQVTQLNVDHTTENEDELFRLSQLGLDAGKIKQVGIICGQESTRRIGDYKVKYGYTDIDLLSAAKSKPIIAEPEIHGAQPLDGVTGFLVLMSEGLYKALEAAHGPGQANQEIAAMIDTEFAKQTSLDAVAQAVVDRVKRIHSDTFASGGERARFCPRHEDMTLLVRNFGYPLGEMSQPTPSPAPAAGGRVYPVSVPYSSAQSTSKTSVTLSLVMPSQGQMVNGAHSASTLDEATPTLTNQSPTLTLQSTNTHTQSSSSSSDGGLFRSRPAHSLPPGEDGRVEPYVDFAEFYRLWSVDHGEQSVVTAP
UniProt Q8NBK3: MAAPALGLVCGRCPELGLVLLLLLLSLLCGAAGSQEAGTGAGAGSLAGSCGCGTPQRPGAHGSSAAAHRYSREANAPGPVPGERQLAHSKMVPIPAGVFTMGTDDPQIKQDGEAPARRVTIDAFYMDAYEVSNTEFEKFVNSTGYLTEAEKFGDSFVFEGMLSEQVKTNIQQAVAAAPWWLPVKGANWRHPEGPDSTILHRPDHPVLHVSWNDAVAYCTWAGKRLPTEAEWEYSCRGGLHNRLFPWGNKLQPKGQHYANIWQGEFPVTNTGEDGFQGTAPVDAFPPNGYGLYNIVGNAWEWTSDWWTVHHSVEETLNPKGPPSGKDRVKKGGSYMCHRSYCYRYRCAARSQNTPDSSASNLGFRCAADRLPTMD
UniProt P55854, whole entry, looked up: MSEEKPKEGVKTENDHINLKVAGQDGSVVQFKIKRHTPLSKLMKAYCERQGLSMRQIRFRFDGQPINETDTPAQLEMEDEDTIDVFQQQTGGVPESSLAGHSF
UniProt Q9UJZ1: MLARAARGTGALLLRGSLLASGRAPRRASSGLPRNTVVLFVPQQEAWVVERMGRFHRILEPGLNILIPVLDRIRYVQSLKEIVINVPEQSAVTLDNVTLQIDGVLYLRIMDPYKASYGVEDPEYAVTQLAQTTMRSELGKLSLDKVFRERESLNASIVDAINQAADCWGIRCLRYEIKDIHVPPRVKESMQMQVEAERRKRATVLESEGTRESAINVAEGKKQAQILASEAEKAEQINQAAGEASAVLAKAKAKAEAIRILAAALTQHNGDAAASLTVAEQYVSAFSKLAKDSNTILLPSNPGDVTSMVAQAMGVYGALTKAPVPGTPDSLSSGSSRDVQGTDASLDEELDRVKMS
UniProt Q8IX01: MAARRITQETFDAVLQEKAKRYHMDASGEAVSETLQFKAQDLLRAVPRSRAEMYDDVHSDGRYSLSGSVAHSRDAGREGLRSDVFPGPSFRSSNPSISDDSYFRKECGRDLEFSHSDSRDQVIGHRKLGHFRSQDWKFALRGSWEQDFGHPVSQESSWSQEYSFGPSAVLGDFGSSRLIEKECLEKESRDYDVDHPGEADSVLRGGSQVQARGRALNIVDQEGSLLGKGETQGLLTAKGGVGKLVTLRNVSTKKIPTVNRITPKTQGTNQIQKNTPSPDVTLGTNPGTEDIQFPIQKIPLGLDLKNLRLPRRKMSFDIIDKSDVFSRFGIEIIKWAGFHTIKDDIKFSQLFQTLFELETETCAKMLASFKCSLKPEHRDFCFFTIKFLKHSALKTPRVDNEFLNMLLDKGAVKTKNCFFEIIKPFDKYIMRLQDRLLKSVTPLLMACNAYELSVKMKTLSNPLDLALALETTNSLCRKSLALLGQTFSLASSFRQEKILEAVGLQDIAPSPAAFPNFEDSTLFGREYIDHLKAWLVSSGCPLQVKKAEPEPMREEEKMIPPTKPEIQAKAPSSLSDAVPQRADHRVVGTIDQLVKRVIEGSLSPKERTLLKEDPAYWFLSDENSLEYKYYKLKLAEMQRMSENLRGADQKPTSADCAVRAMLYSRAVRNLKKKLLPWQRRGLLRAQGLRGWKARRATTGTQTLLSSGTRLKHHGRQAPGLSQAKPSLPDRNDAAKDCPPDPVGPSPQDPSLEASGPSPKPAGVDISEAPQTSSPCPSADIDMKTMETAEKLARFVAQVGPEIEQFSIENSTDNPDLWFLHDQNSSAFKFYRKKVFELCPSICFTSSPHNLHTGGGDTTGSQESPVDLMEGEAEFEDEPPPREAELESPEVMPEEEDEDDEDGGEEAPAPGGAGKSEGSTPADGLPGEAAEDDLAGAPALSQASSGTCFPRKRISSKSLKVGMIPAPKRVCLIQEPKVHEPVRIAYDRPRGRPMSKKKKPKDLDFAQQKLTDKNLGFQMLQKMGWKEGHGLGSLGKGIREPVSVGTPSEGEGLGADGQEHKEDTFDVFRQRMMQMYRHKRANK
UniProt P56962: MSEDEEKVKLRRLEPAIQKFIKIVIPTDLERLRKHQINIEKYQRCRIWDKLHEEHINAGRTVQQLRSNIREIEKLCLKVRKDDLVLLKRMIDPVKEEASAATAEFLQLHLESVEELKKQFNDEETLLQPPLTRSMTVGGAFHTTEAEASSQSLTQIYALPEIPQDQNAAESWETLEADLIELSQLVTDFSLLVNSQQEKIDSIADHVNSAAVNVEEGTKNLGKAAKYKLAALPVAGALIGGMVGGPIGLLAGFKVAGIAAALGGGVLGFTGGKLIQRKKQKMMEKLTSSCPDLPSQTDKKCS
UniProt Q1ZZU3: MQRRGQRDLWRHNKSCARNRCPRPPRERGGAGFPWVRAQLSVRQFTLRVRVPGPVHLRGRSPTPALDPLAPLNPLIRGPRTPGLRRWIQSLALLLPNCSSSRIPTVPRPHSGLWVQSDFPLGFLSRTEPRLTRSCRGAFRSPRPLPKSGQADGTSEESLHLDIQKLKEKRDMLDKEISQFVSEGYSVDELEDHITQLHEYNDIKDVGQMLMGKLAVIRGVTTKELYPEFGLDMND
UniProt Q8NBJ7: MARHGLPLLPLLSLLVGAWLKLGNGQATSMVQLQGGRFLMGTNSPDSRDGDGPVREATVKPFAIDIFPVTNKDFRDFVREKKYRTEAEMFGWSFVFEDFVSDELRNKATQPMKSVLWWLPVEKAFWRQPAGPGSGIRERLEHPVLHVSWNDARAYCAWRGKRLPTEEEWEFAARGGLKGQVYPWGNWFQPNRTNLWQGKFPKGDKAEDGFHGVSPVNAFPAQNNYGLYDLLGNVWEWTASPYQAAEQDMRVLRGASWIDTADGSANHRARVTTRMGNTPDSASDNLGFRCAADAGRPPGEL

Columns and labels:
Test in all cases: log2 fold change, soluble protein after heating vs DMSO (PISA); higher = thermal stabilisation; K562 lysate, 10 uM; active = over 0.2 and 3.5 SD of the protein, either way, in both replicates (recomputed)
erlotinib = compound: C#Cc1cccc(Nc2ncnc3cc(OCCOC)c(OCCOC)cc23)c1 [erlotinib]
Summary of the method: (§1)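 K562 pellets were dounce-homogenised in PBS pH 7.4 containing 1 mM MgCl2, and the crude extract, at 1 mg/mL protein, was exposed to 10 μM compound for 30 min. Aliquots were heated for 3 min across 48°C-58°C, pooled, brought to 0.5% NP-40 at 4°C and spun at 21,000xg for 90 min, with the supernatant taken as soluble protein. TMTpro 16plex LC-MS/MS with equalised channel sums quantified that protein. Values are log-two fold changes in thermal stability relative to solvent controls, taken from duplicates.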

[1] = compound: C/C(=N\NC(=O)C1=CC(=CC=C1)S(=O)(=O)N2CCOCC2)/C3=C(C=CC(=C3)Cl)O
Summary of the method: as §1

[2] = compound: C1=CC(=CC=C1C2=NC3=C(N2)C=C(C=C3)C(=O)N)OC4=CC=C(C=C4)Cl
Summary of the method: as §1

[3] = compound: C1=CC2=C(C=CC(=C2)/C=C\3/C(=O)NC(=NCC4=CC=CS4)S3)N=C1
Summary of the method: as §1

[4] = compound: C1=CC2=NC=CN=C2C=C1/C=C/3\C(=O)NC(=O)S3
Summary of the method: as §1

[5] = compound: C1=CC=C(C=C1)C2=NC(=C(N2)C3=CC=NC=C3)C4=CC(=C(C=C4)Cl)O
Summary of the method: as §1

[6] = compound: C1=CC=C2C(=C1)C3=NNC4=CC=CC(=C43)C2=O
Summary of the method: as §1

[7] = compound: C1CCN(C1)C(=O)NC2=CC=CC(=C2)NC3=NC=C(C(=N3)NCCC4=CN=CN4)Br
Summary of the method: as §1

[8] = compound: C1CN(CCC1(CC2=CC=C(C=C2)Cl)N)C3=NC=NC4=C3C=CN4
Summary of the method: as §1

IRAK-1-4 Inhibitor I = compound: C1COCCN1CCN2C3=CC=CC=C3N=C2NC(=O)C4=CC(=CC=C4)[N+](=O)[O-] [IRAK-1-4 Inhibitor I]
Summary of the method: as §1

ibrutinib = compound: C=CC(=O)N1CCC[C@@H](n2nc(-c3ccc(Oc4ccccc4)cc3)c3c(N)ncnc32)C1 [ibrutinib]
Summary of the method: as §1

[9] = compound: CC(=O)c1cnc2ccc(-c3cc(Cl)c(O)c(Cl)c3)nc2c1N[C@H]1CC[C@H](CN(C)C)CC1
Summary of the method: as §1

ralimetinib = compound: CC(C)(C)Cn1c(N)nc2ccc(-c3[nH]c(C(C)(C)C)nc3-c3ccc(F)cc3)nc21 [ralimetinib]
Summary of the method: as §1

[10] = compound: CC(C)(O)CC(=O)NCCn1ccc2ncnc(Nc3ccc(Oc4cccc(C(F)(F)F)c4)c(Cl)c3)c21
Summary of the method: as §1

[11] = compound: CC(C)C1=C2N=C(C=C(N2N=C1)NCC3=CC=CC=C3)NCCCCCCN
Summary of the method: as §1

[12] = compound: CC1=C(C(CC(=O)N1)C2=CC=C(C=C2)C(F)(F)F)C(=O)NC3=C(C=C4C(=C3)C=NN4)F
Summary of the method: as §1

[13] = compound: CC1=C(C2=C(C=C1)C(=O)C3=CC=CC=C3N2CCCN)C
Summary of the method: as §1

[14] = compound: CC1=C(C=C(C=C1)NC(=O)C2=CC(=CC=C2)C(C)(C)C#N)NC3=CC4=C(C=C3)N=CN(C4=O)C
Summary of the method: as §1

[15] = compound: CC1=C(C=C(C=C1)NC(=O)C2=CC(=CC=C2)N(C)C)NC(=O)C3=CC=C(C=C3)O
Summary of the method: as §1

[16] = compound: CC1=CC=C(C=C1)SC2=C3C=C(SC3=CN=C2)C(=O)N
Summary of the method: as §1

Measured: log2 fold change

SUCLG2 (UniProt Q96I99)
inactive: erlotinib 0.005 | [1] -0.011 | [2] 0.001 | [3] -0.016 | [4] 0.015 | [5] -0.002 | [6] -0.021 | [7] 0 | [8] 0.018 | IRAK-1-4 Inhibitor I 0.014 | ibrutinib 0.018 | [9] 0.006 | ralimetinib 0.014 | [10] -0.013 | [11] 0.016 | [12] 0 | [13] 0.013 | [14] -0.005 | [15] 0.012 | [16] -0.014

SZRD1 (UniProt Q7Z422)
inactive: erlotinib -0.019 | [1] 0.005 | [2] 0.005 | [3] -0.049 | [4] 0.018 | [5] 0.043 | [6] -0.021 | [7] -0.016 | [8] 0.013 | IRAK-1-4 Inhibitor I 0.011 | ibrutinib 0.001 | [9] -0.03 | ralimetinib -0.021 | [10] -0.046 | [11] -0.009 | [12] -0.046 | [13] -0.056 | [14] 0.03 | [15] 0.028 | [16] -0.017

STX3 (UniProt Q13277)
inactive: erlotinib -0.059 | [1] 0 | [2] -0.012 | [3] 0.021 | [4] -0.016 | [5] 0.015 | [6] 0.007 | [7] 0.022 | [8] -0.002 | IRAK-1-4 Inhibitor I 0.002 | ibrutinib 0.018 | [9] 0.021 | ralimetinib 0.037 | [10] -0.022 | [11] -0.006 | [12] 0.015 | [13] -0.002 | [14] -0.031 | [15] -0.003 | [16] 0.01

STXBP1 (UniProt P61764)
inactive: erlotinib 0.021 | [1] 0.044 | [2] 0.003 | [3] -0.054 | [4] 0.055 | [5] -0.011 | [6] -0.061 | [7] -0.034 | [8] 0.024 | IRAK-1-4 Inhibitor I -0.007 | ibrutinib -0.021 | [9] 0.072 | ralimetinib 0 | [10] 0.009 | [11] -0.034 | [12] 0.013 | [13] 0.023 | [14] 0.01 | [15] 0.016 | [16] 0.032

STX7 (UniProt O15400)
inactive: erlotinib 0.004 | [1] 0.013 | [2] 0 | [3] -0.001 | [4] -0.033 | [5] 0.002 | [6] 0.017 | [7] -0.019 | [8] 0.019 | IRAK-1-4 Inhibitor I 0.015 | ibrutinib 0.021 | [9] 0.004 | ralimetinib -0.045 | [10] -0.026 | [11] 0.006 | [12] -0.014 | [13] 0.001 | [14] 0.031 | [15] -0.019 | [16] -0.008

2 successive entries already listed, quoted:
STX3 (UniProt Q13277)
inactive: erlotinib -0.059 | [1] 0 | [2] -0.012 | [3] 0.021 | [4] -0.016 | [5] 0.015 | [6] 0.007 | [7] 0.022 | [8] -0.002 | IRAK-1-4 Inhibitor I 0.002 | ibrutinib 0.018 | [9] 0.021 | ralimetinib 0.037 | [10] -0.022 | [11] -0.006 | [12] 0.015 | [13] -0.002 | [14] -0.031 | [15] -0.003 | [16] 0.01

STXBP1 (UniProt P61764)
inactive: erlotinib 0.021 | [1] 0.044 | [2] 0.003 | [3] -0.054 | [4] 0.055 | [5] -0.011 | [6] -0.061 | [7] -0.034 | [8] 0.024 | IRAK-1-4 Inhibitor I -0.007 | ibrutinib -0.021 | [9] 0.072 | ralimetinib 0 | [10] 0.009 | [11] -0.034 | [12] 0.013 | [13] 0.023 | [14] 0.01 | [15] 0.016 | [16] 0.032

Additional entries

TAF10 (UniProt Q12962)
inactive: erlotinib -0.025 | [1] -0.08 | [2] 0.137 | [3] -0.036 | [4] 0.069 | [5] 0.042 | [6] 0.102 | [7] 0.02 | [8] -0.004 | IRAK-1-4 Inhibitor I -0.013 | ibrutinib 0.161 | [9] -0.043 | ralimetinib 0.05 | [10] 0.069 | [11] -0.018 | [12] 0.03 | [13] 0.019 | [14] 0.042 | [15] -0.089 | [16] -0.041

TAB1 (UniProt Q15750)
inactive: erlotinib -0.004 | [1] 0.042 | [2] -0.001 | [3] -0.022 | [4] -0.019 | [5] -0.02 | [6] 0.032 | [7] 0.002 | [8] 0.004 | IRAK-1-4 Inhibitor I -0.001 | ibrutinib 0.043 | [9] 0.012 | ralimetinib 0.047 | [10] 0.011 | [11] -0.006 | [12] -0.026 | [13] 0.019 | [14] 0.008 | [15] 0.001 | [16] -0.015

SUMF1 (UniProt Q8NBK3)
inactive: erlotinib -0.068 | [1] 0.022 | [2] -0.007 | [3] -0.114 | [4] 0.024 | [5] -0.007 | [6] 0.014 | [7] -0.023 | [8] -0.052 | IRAK-1-4 Inhibitor I 0.04 | ibrutinib 0.017 | [9] 0.035 | ralimetinib 0.043 | [10] 0.016 | [11] -0.02 | [12] 0.062 | [13] 0.025 | [14] -0.033 | [15] 0.028 | [16] -0.05

SUMO3 isoform 2 (UniProt P55854)
inactive: erlotinib 0 | [1] -0.002 | [2] -0.006 | [3] -0.027 | [4] -0.02 | [5] 0.038 | [6] -0.007 | [7] 0.104 | [8] 0.053 | IRAK-1-4 Inhibitor I 0.014 | ibrutinib 0.028 | [9] -0.014 | ralimetinib -0.016 | [10] 0.024 | [11] 0.019 | [12] -0.009 | [13] 0.041 | [14] -0.007 | [15] 0.046 | [16] 0.031

STOML2 (UniProt Q9UJZ1)
inactive: erlotinib -0.021 | [1] 0.018 | [2] 0.04 | [3] -0.049 | [4] 0.037 | [5] 0.012 | [6] -0.063 | [7] 0.023 | [8] 0.027 | IRAK-1-4 Inhibitor I 0.036 | ibrutinib 0.017 | [9] -0.012 | ralimetinib -0.015 | [10] -0.028 | [11] 0.033 | [12] -0.025 | [13] -0.04 | [14] 0 | [15] 0.002 | [16] -0.006

SUGP2 (UniProt Q8IX01)
inactive: erlotinib 0.04 | [1] -0.053 | [2] -0.069 | [3] -0.004 | [4] 0.064 | [5] -0.024 | [6] -0.071 | [7] 0.053 | [8] 0.044 | IRAK-1-4 Inhibitor I 0.098 | ibrutinib 0.097 | [9] -0.014 | ralimetinib 0.097 | [10] -0.038 | [11] 0.155 | [12] 0.038 | [13] -0.069 | [14] -0.134 | [15] -0.126 | [16] -0.022

STX17 (UniProt P56962)
inactive: erlotinib 0.026 | [1] 0.03 | [2] -0.047 | [3] 0.001 | [4] 0.009 | [5] -0.005 | [6] -0.12 | [7] -0.026 | [8] 0.005 | IRAK-1-4 Inhibitor I -0.031 | ibrutinib 0.061 | [9] -0.036 | ralimetinib -0.092 | [10] -0.074 | [11] 0.038 | [12] 0.108 | [13] -0.062 | [14] -0.012 | [15] 0.053 | [16] -0.027

SWI5 (UniProt Q1ZZU3)
inactive: erlotinib 0.013 | [1] -0.013 | [2] 0.026 | [3] 0.091 | [4] -0.157 | [5] 0.009 | [6] 0.006 | [7] -0.237 | [8] 0.37 | IRAK-1-4 Inhibitor I 0.052 | ibrutinib 0.104 | [9] -0.039 | ralimetinib 0.024 | [10] -0.032 | [11] 0.036 | [12] 0.095 | [13] 0.009 | [14] 0.064 | [15] -0.017 | [16] -0.051

SUMF2 (UniProt Q8NBJ7)
inactive: erlotinib 0.002 | [1] 0.006 | [2] 0.026 | [3] -0.009 | [4] 0.003 | [5] -0.007 | [6] -0.066 | [7] -0.032 | [8] 0.014 | IRAK-1-4 Inhibitor I 0.032 | ibrutinib -0.019 | [9] -0.03 | ralimetinib 0.021 | [10] -0.031 | [11] -0.015 | [12] -0.022 | [13] 0.015 | [14] -0.006 | [15] 0.028 | [16] 0.016

SYNJ2BP-COX16, A0A087WYV9
inactive: erlotinib -0.023 | [1] 0.093 | [2] 0.121 | [3] -0.037 | [4] 0.01 | [5] 0.001 | [6] -0.061 | [7] 0.029 | [8] 0.009 | IRAK-1-4 Inhibitor I -0.009 | ibrutinib 0.002 | [9] 0.432 | ralimetinib -0.018 | [10] 0.075 | [11] -0.036 | [12] -0.106 | [13] -0.088 | [14] -0.05 | [15] -0.019 | [16] -0.046
